Source: PMC9530460
For at least one entry, the source does not settle the construct or the ends of the probe. Where cells or extracts were used, other partners may take part. For some assays here: Weaker means in comparison with the reference protein, sequence or condition of that experiment.

The chains behind the UniProt entries cited, without tags or fusion partners. Where a name states a change or a piece, a line headed by the entry shows the natural chain unless it says otherwise.
UniProt P05067: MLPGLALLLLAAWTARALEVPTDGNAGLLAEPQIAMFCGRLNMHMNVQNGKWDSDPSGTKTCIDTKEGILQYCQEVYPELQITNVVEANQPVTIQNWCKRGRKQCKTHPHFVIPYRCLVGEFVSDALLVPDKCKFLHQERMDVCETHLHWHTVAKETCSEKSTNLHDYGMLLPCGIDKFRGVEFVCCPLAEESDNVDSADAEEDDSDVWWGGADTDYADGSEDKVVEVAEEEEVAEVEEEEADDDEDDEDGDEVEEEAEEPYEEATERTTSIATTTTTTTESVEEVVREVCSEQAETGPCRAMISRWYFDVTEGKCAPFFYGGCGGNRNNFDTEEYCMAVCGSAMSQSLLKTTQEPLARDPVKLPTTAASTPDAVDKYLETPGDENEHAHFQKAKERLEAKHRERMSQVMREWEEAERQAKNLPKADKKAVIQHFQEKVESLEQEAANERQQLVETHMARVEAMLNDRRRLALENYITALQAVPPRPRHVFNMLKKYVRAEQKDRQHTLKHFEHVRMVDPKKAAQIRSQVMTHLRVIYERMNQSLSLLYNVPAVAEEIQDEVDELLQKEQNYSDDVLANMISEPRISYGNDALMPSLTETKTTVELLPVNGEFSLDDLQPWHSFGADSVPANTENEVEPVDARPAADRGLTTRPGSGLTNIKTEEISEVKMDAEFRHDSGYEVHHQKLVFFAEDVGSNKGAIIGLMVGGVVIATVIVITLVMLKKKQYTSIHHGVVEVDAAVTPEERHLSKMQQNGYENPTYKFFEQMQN

Key:
[1] = target: amyloid-beta peptide 1-42 (Abeta1-42) (UniProt P05067); test: pull-down on graphene oxide with SALDI-TOF MS read-out; settings: aptamer non-covalently bound to GO, low peak (S/N 17), attributed to loss of aptamer-captured peptide on washing; 5'-thiol, coupled to PEGylated graphene oxide via HS-PEG-NH2 (disulfide); Apt-GO prepared in PBS pH 7.4 (aptamer heated 90 C, cooled to room temperature), redispersed in ultrapure water; protein in an extract; residues 672-713; label: 3'-fluorescein (for quantifying immobilization); single-stranded DNA
[2] = target: amyloid-beta peptide 1-42 (Abeta1-42) (UniProt P05067); test: pull-down on aptamer-conjugated graphene oxide with SALDI-TOF MS read-out; settings: aptamer covalently bound to GO, AD cell model, bare GO also adsorbs some peptide; 5'-thiol, coupled to PEGylated graphene oxide via HS-PEG-NH2 (disulfide); Apt-GO prepared in PBS pH 7.4 (aptamer heated 90 C, cooled to room temperature), redispersed in ultrapure water; protein in an extract; residues 672-713; label: 3'-fluorescein (for quantifying immobilization); single-stranded DNA

AGTCTAGGATTCGGCGTGGGTTAATTTTTTGCTGCCTGTGGTGTTGGGGCGGGTGCG [Abeta1-42 aptamer]
binding result [1]: binds more weakly | binding result [2]: binds
